From patent US11672873
No constants are given. Whether binding was seen depends on the method and setting. Some results given as binding are weak or reduced against the parent protein; the word gives no strength. For some of these results: Tags and fused reporters may be left off the sequences shown.

Columns and labels:
[1] = target: soluble 6xHis-tagged B7-H4 extracellular portion (V1) (mouse) (UniProt Q7TSP5); assay: BS3 cross-linking, SDS-PAGE and western blot (self-association)
[2] = target: PNGase F-treated V1 (mouse) (UniProt Q7TSP5); assay: as above
[3] = target: soluble 6xHis-tagged B7-H4 IgV-like domain (IgV) (mouse) (UniProt Q7TSP5); assay: BS3 cross-linking and western blot (self-association)
[4] = target: soluble 6xHis-tagged B7-H4 IgC-like domain (IgC) (mouse) (UniProt Q7TSP5); assay: as above

B1: soluble 6xHis-tagged B7-H4 extracellular portion (V1) (ligand, mouse)
chain: LIIGFGISGKHFITVTTFTSAGNIGEDGTLSCTFEPDIKLNGIVIQWLKEGIKGLVHEFKEGKDDLSQQHEMFRGRTAVFADQVVVGNASLRLKNVQLTDAGTYTCYIRTSKGKGNANLEYKTGAFSMPEINVDYNASSESLRCEAPRWFPQPTVAWASQVDQGANFSEVSNTSFELNSENVTMKVVSVLYNVTINNTYSCMIENDIAKATGDIKVTDSEVKRRSQLQLLNSGHHHHHH
modifications: N-glycosylated (N112, N160, N190, N196, N205, N216, N220)
In the case of B1, the binding [1] is reported as “binds”.

B2: PNGase F-treated V1 (ligand, mouse)
chain: B1 chain
modifications: N-glycans removed by PNGase F treatment
With B2 the binding [2] was “binds”.

B3: soluble 6xHis-tagged B7-H4 IgV-like domain (IgV) (ligand, mouse)
chain: LIIGFGISGKHFITVTTFTSAGNIGEDGTLSCTFEPDIKLNGIVIQWLKEGIKGLVHEFKEGKDDLSQQHEMFRGRTAVFADQVVVGNASLRLKNVQLTDAGTYTCYIRTSKGKGNANLEYKTGAFHHHHHH
For B3, the binding [3] was “binds”.

B4: soluble 6xHis-tagged B7-H4 IgC-like domain (IgC) (ligand, mouse)
chain: SMPEINVDYNASSESLRCEAPRWFPQPTVAWASQVDQGANFSEVSNTSFELNSENVTMKVVSVLYNVTINNTYSCMIENDIAKATGDIKVTDSEVKRRSQLQLLNSGHHHHHH
For B4, the binding [4] was “binds”.
